This note sets out measurements from PMC8053200.

Protein sequences, listed by entry. Tags and fused reporters are not part of them.
UniProt Q04206, whole entry: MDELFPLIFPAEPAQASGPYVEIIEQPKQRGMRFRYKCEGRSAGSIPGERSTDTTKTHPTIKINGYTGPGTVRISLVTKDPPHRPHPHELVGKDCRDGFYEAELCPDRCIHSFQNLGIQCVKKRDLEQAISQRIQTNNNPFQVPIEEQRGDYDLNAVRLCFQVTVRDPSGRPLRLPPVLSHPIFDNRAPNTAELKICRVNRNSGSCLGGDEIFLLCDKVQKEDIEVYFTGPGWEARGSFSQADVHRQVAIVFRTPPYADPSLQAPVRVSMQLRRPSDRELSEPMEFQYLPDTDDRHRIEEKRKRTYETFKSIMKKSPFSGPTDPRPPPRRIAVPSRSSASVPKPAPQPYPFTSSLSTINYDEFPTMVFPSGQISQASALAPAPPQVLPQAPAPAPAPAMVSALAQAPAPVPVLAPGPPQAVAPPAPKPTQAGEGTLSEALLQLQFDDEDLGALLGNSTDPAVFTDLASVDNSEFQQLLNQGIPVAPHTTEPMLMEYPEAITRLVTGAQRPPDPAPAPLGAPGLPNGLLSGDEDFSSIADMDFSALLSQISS

Data set [1] has as its target RelA (p65) (human (umbilical cord blood-derived EPCs)) (UniProt Q04206). Put plainly: pull-down (DAPA) with immunoblot. Particulars: untreated EPC nuclear extract; protein in an extract; label: biotin at both 5' and 3' ends.
In data set [2] the target is p-RelA (phosphorylated RelA) (human (umbilical cord blood-derived EPCs)) (UniProt Q04206). In words: pull-down (DAPA) with immunoblot. The following applies: untreated EPC nuclear extract; protein in an extract; label: biotin at both 5' and 3' ends. For orientation: Immunoblotting shows a protein as a band on a membrane.
In data set [3] the target is T1, p50 (NF-kB1) (human (umbilical cord blood-derived EPCs)) (UniProt P19838).
T1 sequence (looked up, limits assumed): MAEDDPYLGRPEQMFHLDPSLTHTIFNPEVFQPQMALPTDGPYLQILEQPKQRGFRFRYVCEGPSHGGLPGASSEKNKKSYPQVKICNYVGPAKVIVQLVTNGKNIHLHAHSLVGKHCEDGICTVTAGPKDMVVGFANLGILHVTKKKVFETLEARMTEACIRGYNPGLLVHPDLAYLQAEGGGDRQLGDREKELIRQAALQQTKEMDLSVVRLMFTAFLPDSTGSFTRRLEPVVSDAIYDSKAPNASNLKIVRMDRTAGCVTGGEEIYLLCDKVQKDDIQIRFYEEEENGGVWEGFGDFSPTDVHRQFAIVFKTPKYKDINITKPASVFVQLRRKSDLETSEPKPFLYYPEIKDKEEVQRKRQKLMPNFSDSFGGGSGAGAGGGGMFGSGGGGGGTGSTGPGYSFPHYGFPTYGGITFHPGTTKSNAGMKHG
Put plainly: pull-down (DAPA) with immunoblot. Particulars: untreated EPC nuclear extract; protein in an extract; label: biotin at both 5' and 3' ends.

Data set [4] deals with RelA (p65) (human (umbilical cord blood-derived EPCs)) (UniProt Q04206). In words: EMSA with antibody (anti-RelA dissipated the specific band). Particulars: untreated EPC nuclear extract, band eliminated by 50-200x unlabeled probe; LightShift Chemiluminescent EMSA Kit per manufacturer (buffer, salt, pH not stated); nuclear extract with probe 20 min at room temperature; protein in an extract; label: biotin at both 5' and 3' ends. For orientation: Mobility shift assays separate free from complexed probe on a gel.

At least one result comes from cells or an extract, where the contact may be indirect. For some of these results: Negatives hold for the conditions tested. For some of these results: Protein sequences can lack the tags named with them. For some of these results: Construct, isoform or probe ends are uncertain for at least one entry.

In the case of “CAGGGTCCCCTGGGCTTCCCAAGCCGCGCACCTCT (double strand) [CXCR4-biotin probe (CXCR4 promoter -130 to -164)]”, the binding result in data set [1] is “binds”; in data set [2], “no binding”; in data set [3] it was “no binding”; in data set [4] it was “binds”.
